# Several values for one entry are separate records, joined by “and”; a condition that tells them apart may be missing. Equal entries are not always repeated. The campaign covered roughly 310,000 compounds. About 17,000 (5.5%) were called active. The shares of active, inactive and inconclusive entries below differ from those in the screen. Calls come from the whole dose curve; as a rule, active = well fitted inhibition curve with a large enough effect; inconclusive = small, poorly fitted or top-dose-only effect, or effect the other way; inactive = no such curve, though single readings can be large or run the other way. A potency beside an inconclusive call is a rough fit, not a confirmed value.
# The chains behind the UniProt entries cited, without tags or fusion partners. Where a name states a change or a piece, a line headed by the entry shows the natural chain unless it says otherwise.
# UniProt P51450: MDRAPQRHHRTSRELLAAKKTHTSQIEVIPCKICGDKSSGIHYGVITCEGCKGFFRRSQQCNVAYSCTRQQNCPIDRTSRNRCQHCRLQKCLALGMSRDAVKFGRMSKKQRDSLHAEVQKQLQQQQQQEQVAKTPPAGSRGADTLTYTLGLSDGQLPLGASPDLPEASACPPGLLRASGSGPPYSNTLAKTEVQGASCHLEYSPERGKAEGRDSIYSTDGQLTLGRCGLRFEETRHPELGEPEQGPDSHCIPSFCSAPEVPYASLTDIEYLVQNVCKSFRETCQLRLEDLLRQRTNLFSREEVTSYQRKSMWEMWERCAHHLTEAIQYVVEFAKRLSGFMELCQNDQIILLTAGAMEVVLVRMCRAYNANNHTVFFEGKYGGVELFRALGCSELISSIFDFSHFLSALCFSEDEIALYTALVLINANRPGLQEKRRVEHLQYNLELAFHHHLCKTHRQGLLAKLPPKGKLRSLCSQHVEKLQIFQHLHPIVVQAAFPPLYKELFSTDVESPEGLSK
# Target: Nuclear receptor ROR-gamma (Mus musculus) (UniProt P51450)
# Assay: qHTS for inhibitors of ROR gamma transcriptional activity; note: nearly all actives have a fitted effect of over 60% in size
# Conditions: Drosophila S2 Gal4-RORgamma UAS-luciferase reporter, 20 h; series mostly up to 53.6 µM
# In short: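 Stable Schneider cell line, Gal4 DNA-binding domain fused to ROR gamma, UAS-luciferase. Cmpd 1 hr RT → CuSO4 700 uM final → 20 hr RT → luciferase reagent 10 min → luminescence.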
# Potency is the fitted concentration of half-maximal effect.
row,SMILES,Potency
1,COc1ccc(-n2nnc3c(SCC(=O)NCC4CCCO4)ncnc32)cc1 (stereo not given),"inconclusive: 35.5 µM [inhibitor, single point]"
2,Fc1ccc(COc2ccccc2-c2ccnc3ncnn23)cc1,inactive
3,O=C(COc1ccc(Cl)cc1)Nc1ccc(Cc2ccncc2)cc1,"inconclusive: 12.6 µM [activator, single point]"
4,CCOC(=O)C1=C(CNCc2ccc(C)cc2)NC(=O)NC1c1cc(C)ccc1C (stereo not given),inactive
5,COc1ccc(N2CCN(C(=O)c3ccc(Cl)c(S(=O)(=O)N4CCCC4)c3)CC2)cc1,inactive
6,N#CCC(=O)N/N=C/c1cn(Cc2ccc3ccccc3c2)c2ccccc12,active: 12.6 µM
8,Cc1ccc(Nc2nc(Cl)c(C=O)s2)cc1,"inconclusive: 1.26 µM [activator, partial curve]"
9,Cc1ccccc1SCC(=O)Nc1cc(S(=O)(=O)N2CCOCC2)ccc1N1CCOCC1,"inconclusive: 14.1 µM [activator, single point]"
10,Cc1csc(N/N=C/c2ccccc2F)n1,"inconclusive: 15.8 µM [inhibitor, single point]"
11,CN1/C(=C\C(=O)COC(=O)CN2C(=O)C3CC=CCC3C2=O)C(C)(C)c2ccccc21 (stereo not given),"inconclusive: 3.55 µM [inhibitor, single point]"
12,CC(C)OC(=O)C(NC(=O)c1ccccc1)=C1CCCCC1,inactive
13,COC(=O)CSc1nc2cc(C)ccc2cc1C#N,inactive
14,Cc1cccnc1NC(=S)NC(=O)/C=C/c1ccco1,active: 2.82 µM
15,N/C(=N\N=C\c1cccc(O)c1)c1nonc1N,"inconclusive: 35.5 µM [inhibitor, single point]"
16,Cc1cccc(Nc2ncnc(N)c2[N+](=O)[O-])n1,inactive
17,COc1ccc(C(=O)Nc2ccc3c(c2)OCCO3)cc1,"inconclusive: 14.1 µM [inhibitor, single point]"
18,CCOC(=O)c1c(-c2ccc(C)o2)csc1NC(=O)COC(=O)c1cccs1,"inconclusive: 35.5 µM [inhibitor, single point]"
19,CCC(C)c1ccc(NC(=O)C2CCCN(c3ncccn3)C2)cc1 (stereo not given),inactive
20,O=C(Nc1cccc2nsnc12)c1ccc(-c2cccc(Cl)c2)o1,"inconclusive: 35.5 µM [inhibitor, single point]"
21,Cc1ccc(NC(=S)NC(=O)C2CCCC2)cc1C,active: 3.55 µM
22,C=C1CCC2C(C)(C)[C@@H](O)CC[C@@]2(C)[C@@H]1COc1ccc2ccc(=O)oc2c1 (stereo not given in full),inactive
23,Cc1ccccc1C(=O)NC(=S)Nc1ccc(N2CCOCC2)cc1,active: 20 µM
24,O=C(Oc1ccc(OC(=O)c2ccco2)c(S(=O)(=O)c2ccc(Br)cc2)c1)c1ccco1,"inconclusive: 10 µM [activator, partial curve]"

# Filtered by structure, the compounds so far containing fluorine
row,SMILES,Potency
2,Fc1ccc(COc2ccccc2-c2ccnc3ncnn23)cc1,inactive
10,Cc1csc(N/N=C/c2ccccc2F)n1,"inconclusive: 15.8 µM [inhibitor, single point]"

# Additional records follow:

row,SMILES,Potency
1,O=C(/C=C/c1ccc(Cl)c([N+](=O)[O-])c1)Nc1cccc(NC(=O)c2ccco2)c1,"inconclusive: 11.2 µM [activator, partial curve]"
2,CCc1c2c(nc3ccc(OC)cc13)-c1nc3ccccc3c(=O)n1C2,"inconclusive: 14.1 µM [inhibitor, single point]"
3,CCCCC(=O)Nc1ccc(NC(=O)c2cnccn2)cn1,inactive
4,O=c1[nH]cccc1-c1nc2ccccc2n1Cc1cccc(F)c1,"inconclusive: 35.5 µM [activator, single point]"
5,COc1ccc(-c2nnc(-c3cc4c(ccc5ccccc54)oc3=O)o2)cc1,"inconclusive: 10 µM [inhibitor, partial curve]"
6,COc1ccc(NS(=O)(=O)c2cc(NC(=O)c3ccc(F)cc3)ccc2OC)cc1,"inconclusive: 35.5 µM [activator, single point]"
7,C=CCNC(=O)COC(=O)c1ccc(Cl)c(S(=O)(=O)N(Cc2ccccc2)c2ccccc2)c1,"inconclusive: 7.08 µM [inhibitor, full curve]"
8,COc1ccc(Br)cc1/C=N/n1c(COc2ccccc2)n[nH]c1=S,"inconclusive: 6.31 µM [inhibitor, partial curve]"
9,O=C1c2ccccc2NC2CCCCCN12 (stereo not given),"inconclusive: 35.5 µM [activator, single point]"
10,COc1ccc(Cn2c(=S)[nH]c3cc(C(=O)N4CCCCC4)ccc3c2=O)cc1,active: 8.91 µM
11,CCCCCc1cc(=O)oc2c(C(CCN3CCCC3)c3ccc4c(c3)OCO4)c(OC)cc(OC)c12 (stereo not given),"inconclusive: 35.5 µM [inhibitor, single point]"
12,COc1ccc(CCN2C(=O)CC(NC34CC5CC(CC(C5)C3)C4)C2=O)cc1OC (stereo not given),"inconclusive: 22.4 µM [inhibitor, single point]"
13,Cn1c(=O)[nH]c(=O)c2c1nc(Sc1ncccn1)n2CCCc1ccccc1,"inconclusive: 14.1 µM [activator, partial curve]"
14,N#Cc1ccccc1-c1nc(NCCN2CCOCC2)c2ccccc2n1,"inconclusive: 3.98 µM [activator, full curve, poor fit]"
15,O=S1(=O)N=C(N/N=C/c2ccccn2)c2ccccc21,"inconclusive: 15.8 µM [inhibitor, single point]"
16,COc1ccc(Cn2c(SCc3ccccc3C)nc3cc(OC)c(OC)cc3c2=N)cc1,"inconclusive: 22.4 µM [inhibitor, single point]"
17,CCSc1nnc(NC(=O)CSc2nnc(-c3c[nH]c4ccccc34)n2CC)s1,"inconclusive: 5.62 µM [activator, single point]"
18,COc1ccccc1NC(=O)Cn1c(=O)n(CCc2c[nH]c3ccccc23)c(=O)c2cccnc21,inactive
19,Cc1nn(C)cc1-c1n[nH]c(=S)n1-c1ccc(F)cc1,"inconclusive: 14.1 µM [inhibitor, single point]"
20,CCC(C(=O)NC(C)(C)C)N(Cc1cccs1)C(=O)CNS(=O)(=O)c1ccccc1 (stereo not given),inactive
21,O=C(/C=C/c1ccco1)Nc1ccc2c(c1)OCCO2,"inconclusive: 12.6 µM [inhibitor, single point]"
22,N#Cc1nc(COc2ccccc2Cl)oc1N1CCCCCC1,"inconclusive: 2.24 µM [activator, partial curve, poor fit]"
23,CCOc1ccccc1NC(=O)CCN(c1ccc(C)cc1)S(=O)(=O)c1ccccc1,inactive
24,O=C(CSc1nnc(-c2ccccn2)n1Cc1ccco1)c1ccc(Cl)cc1,"inconclusive: 35.5 µM [inhibitor, single point]"

# At a glance, two of the compounds above.
row,SMILES,Potency
14,Cc1cccnc1NC(=S)NC(=O)/C=C/c1ccco1,active: 2.82 µM
15,N/C(=N\N=C\c1cccc(O)c1)c1nonc1N,"inconclusive: 35.5 µM [inhibitor, single point]"

# Next part:

row,SMILES,Potency
1,CCOC(=O)C1CCCN(C(=O)Cc2ccc(OC)c(OC)c2)C1 (stereo not given),inactive
2,CCOC(=O)N1CCN(c2ccc(C(=O)c3ccccc3)cc2F)CC1,"inconclusive: 5.62 µM [activator, full curve]"
3,CCCCC(=O)NC(NC(=S)N1CCCCCC1)C(Cl)(Cl)Cl (stereo not given),"inconclusive: 20 µM [inhibitor, partial curve, poor fit]"
4,CCc1ccc(OCC(=O)NC(NC(=S)Nc2ccccc2)C(Cl)(Cl)Cl)cc1 (stereo not given),"inconclusive: 35.5 µM [inhibitor, single point]"
5,S=C(NCCN1CCOCC1)NC1CCCC1,inactive
6,COc1ccc(C(=S)N2CCN(c3ccccc3C)CC2)cc1,"inconclusive: 35.5 µM [inhibitor, single point]"
7,Cc1ccc(NC(=O)c2ccccc2NC(=O)c2cccs2)cc1,"inconclusive: 35.5 µM [activator, single point]"
8,Cc1noc(C)c1C(=O)N1CCC2(CCCN(c3ccccc3)C2)CC1,inactive
9,COc1cc(C(C)=O)ccc1Oc1ncnc2c1cnn2-c1ccc(C)c(C)c1,"inconclusive: 12.6 µM [activator, partial curve]"
10,CCOC(=O)CC1=NN(c2ccccc2)C(=O)C1,"inconclusive: 35.5 µM [activator, single point]"
11,O=C(Nc1cccc(Cl)c1)c1ccc(F)c(S(=O)(=O)NCc2ccc3c(c2)OCO3)c1,"inconclusive: 35.5 µM [activator, partial curve]"
12,Cn1c(CCNC(=O)c2ccco2)nc2cc(NS(=O)(=O)c3ccc(Cl)cc3)ccc21,"inconclusive: 20 µM [activator, single point]"
13,CCCCN(C(=S)Nc1cccc(SC)c1)C1CCN(C(C)=O)CC1,"inconclusive: 25.1 µM [inhibitor, single point]"
14,CCOC(=O)C1=C(C)OC(N)=C(C#N)C1c1c(C)nn(-c2ccccc2)c1Cl (stereo not given),"inconclusive: 6.31 µM [inhibitor, single point]"
15,CC(C)CCc1noc(CN2CCC(C(=O)N3CCOCC3)CC2)n1,inactive
16,COCCn1c(N)c(C(=O)OCc2ccccc2)c2nc3ccccc3nc21,"inconclusive: 25.1 µM [inhibitor, single point]"
17,CCCCC(CCC(=O)O)(C(=O)OCC)c1csc(Nc2ccccc2)n1 (stereo not given),inactive
18,COc1ccc(C(=O)c2sc(Nc3ccccc3)c(C(=O)Nc3ccc(OC)c(OC)c3)c2N)cc1,"inconclusive: 15.8 µM [inhibitor, single point]"
19,CCc1nn(CC(=O)NCc2cccnc2)c(=O)c2cc3occc3n12,inactive
20,CCOc1cc(CNc2cccc3ccccc23)cc(Br)c1OCC(=O)NC(C)(C)C,"inconclusive: 0.0794 µM [inhibitor, full curve, poor fit]"
21,CC(=O)N(C)c1ccc(NC(=S)Nc2ccc(C(C)C)cc2)cc1,active: 7.08 µM
22,Cc1ccsc1/C=N/NC(=O)c1ccc2c(c1)OCCO2,active: 1.41 µM

# Reference: PubChem BioAssay AID2551 (National Center for Advancing Translational Sciences (NCATS), 2010)
